The campaign covered roughly 390,000 compounds. About 610 (0.16%) were called active. Inconclusive means that the source gave no clear call. Such entries were picked first, then a sample of the others. Calls come from the whole dose curve; as a rule, active = well fitted inhibition curve with a large enough effect; inconclusive = small, poorly fitted or top-dose-only effect, or effect the other way, or another doubt; inactive = no such curve, though single readings can be large or run the other way. Where the call is inconclusive, the potency comes from a doubtful curve fit.
Experiment: Nrf2 qHTS screen for inhibitors: counterscreen for cytotoxicity
Settings: A549 ARE-Fluc cells, CellTiter-Fluor viability, 18-24 h; series mostly up to 46 µM
Outline: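 A549 ARE-Fluc cells in 5% FBS OPTI-MEM, 5000 cells/well, rested 2 h then exposed to compounds in concentration-response for 18-24 h at 37 °C. Viability by CellTiter-Fluor fluorescence (Ex 405/Em 525) after 30 min; luciferase luminescence (BugLite, 15 min, RT) read afterwards.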
Potency is the fitted concentration of half-maximal effect.

Compound | Potency
O=C1CSC(=Nc2cccc(Cl)c2Cl)N1Cc1cccnc1 | inactive
CCOc1ccc(NC(=O)CN(C)C(=O)CCNC(=O)c2ccccc2Cl)cc1OCC | inactive
Cc1[nH]c(=O)c(C(=O)/C=C/c2ccccc2)c2c1CCCC2 | inconclusive: 18.4 µM [falling, partial curve, poor fit]
Cc1ccc(N=Cc2cccc(O)c2O)c(C)c1 | inconclusive: 20.6 µM [falling, partial curve, poor fit]
Cc1ccc(-n2nnnc2-c2cccnc2)cc1 | inactive
CCOC(=O)C1CCN(C(=O)Nc2ccc3nc(-c4ccco4)c(-c4ccco4)nc3c2)CC1 | inconclusive: 29.1 µM [activator, single point]
COc1ccc(/C=N/Nc2nc(NCc3ccco3)nc(Nc3ccc(OC)cc3)n2)cc1 | inconclusive: 11.6 µM [activator, partial curve, poor fit]
CCOC(=O)c1c(-c2ccccc2)oc2ccc(NS(=O)(=O)c3ccc(OC)cc3)cc12 | inactive
OCCNc1nc(Nc2cc(Cl)ccc2OC2CCCC2)nc(N2CCCC2)n1 | inconclusive: 23.1 µM [falling, partial curve, poor fit]
CCOCCCNC(=O)/C(C#N)=C/c1ccc([N+](=O)[O-])o1 | inconclusive: 29.1 µM [falling, single point]
COc1ccccc1N/C=C/c1onc(C)c1[N+](=O)[O-] | inconclusive: 18.4 µM [falling, partial curve, poor fit]
Cc1ccc(Cn2nc(C)c(NC(=O)c3cc(-c4ccc5c(c4)OCO5)on3)c2C)cc1 | inconclusive: 25.9 µM [falling, partial curve, poor fit]
O=S(=O)(c1ccc(C2CCCCC2)cc1)N1CCOCC1 | inactive
CCN(CC)c1ccc(-c2nn3c(-c4n[nH]c5c4CCC5)nnc3s2)cc1 | inconclusive: 1.3 µM [falling, full curve]
O=[N+]([O-])c1ccc(N2CCSCC2)cc1O | inconclusive: 11.6 µM [falling, partial curve]
CCCCCC(=O)O[C@]1(C(C)=O)CC[C@H]2[C@@H]3CCC4=CC(=O)CC[C@]4(C)[C@H]3CC[C@@]21C | inconclusive: 25.9 µM [falling, partial curve, poor fit]
CC(C)(C)[C@@H]1CCC(=O)N(CC[C@H](Sc2ccccc2)c2ccccc2)CC1 | inactive
Cc1ccc(C(Nc2ccccn2)c2ccc3cccnc3c2O)cc1 (stereo not given) | inactive
OCCN1CCN(c2nc(-c3ccccc3)c3cc(Cl)ccc3n2)CC1 | inconclusive: 23.1 µM [falling, partial curve, poor fit]
CCOC(=O)NC1CCc2cc(OC)c(OC)c(OC)c2-c2ccc(SC)c(=O)cc21 (stereo not given) | inconclusive: 9.2 µM [falling, partial curve]
COc1ccc(-c2cn3ccccc3n2)cc1 | inactive
COc1cc(C#Cc2c(-c3cncn3C)n(C)c3ccc(-c4ccc5[nH]ccc5c4)cc23)cc(OC)c1 | inconclusive: 2.06 µM [activator, full curve, poor fit]

17 of the compounds above, in CSV form:
Compound,Potency
CCOC(=O)C1CCN(C(=O)Nc2ccc3nc(-c4ccco4)c(-c4ccco4)nc3c2)CC1,"inconclusive: 29.1 µM [activator, single point]"
COc1ccc(/C=N/Nc2nc(NCc3ccco3)nc(Nc3ccc(OC)cc3)n2)cc1,"inconclusive: 11.6 µM [activator, partial curve, poor fit]"
CCOC(=O)c1c(-c2ccccc2)oc2ccc(NS(=O)(=O)c3ccc(OC)cc3)cc12,inactive
OCCNc1nc(Nc2cc(Cl)ccc2OC2CCCC2)nc(N2CCCC2)n1,"inconclusive: 23.1 µM [falling, partial curve, poor fit]"
CCOCCCNC(=O)/C(C#N)=C/c1ccc([N+](=O)[O-])o1,"inconclusive: 29.1 µM [falling, single point]"
COc1ccccc1N/C=C/c1onc(C)c1[N+](=O)[O-],"inconclusive: 18.4 µM [falling, partial curve, poor fit]"
Cc1ccc(Cn2nc(C)c(NC(=O)c3cc(-c4ccc5c(c4)OCO5)on3)c2C)cc1,"inconclusive: 25.9 µM [falling, partial curve, poor fit]"
O=S(=O)(c1ccc(C2CCCCC2)cc1)N1CCOCC1,inactive
CCN(CC)c1ccc(-c2nn3c(-c4n[nH]c5c4CCC5)nnc3s2)cc1,"inconclusive: 1.3 µM [falling, full curve]"
O=[N+]([O-])c1ccc(N2CCSCC2)cc1O,"inconclusive: 11.6 µM [falling, partial curve]"
CCCCCC(=O)O[C@]1(C(C)=O)CC[C@H]2[C@@H]3CCC4=CC(=O)CC[C@]4(C)[C@H]3CC[C@@]21C,"inconclusive: 25.9 µM [falling, partial curve, poor fit]"
CC(C)(C)[C@@H]1CCC(=O)N(CC[C@H](Sc2ccccc2)c2ccccc2)CC1,inactive
Cc1ccc(C(Nc2ccccn2)c2ccc3cccnc3c2O)cc1 (stereo not given),inactive
OCCN1CCN(c2nc(-c3ccccc3)c3cc(Cl)ccc3n2)CC1,"inconclusive: 23.1 µM [falling, partial curve, poor fit]"
CCOC(=O)NC1CCc2cc(OC)c(OC)c(OC)c2-c2ccc(SC)c(=O)cc21 (stereo not given),"inconclusive: 9.2 µM [falling, partial curve]"
COc1ccc(-c2cn3ccccc3n2)cc1,inactive
COc1cc(C#Cc2c(-c3cncn3C)n(C)c3ccc(-c4ccc5[nH]ccc5c4)cc23)cc(OC)c1,"inconclusive: 2.06 µM [activator, full curve, poor fit]"

More results follow.

Compound | Potency
COc1ccc(/C=C2\Sc3ccc(C(=O)N4CCCC4)cc3N(C)C2=O)cc1OC | inactive
Clc1ccc2c(c1)C(N1CCNCC1)Cc1ccccc1S2 (stereo not given) | inconclusive: 16.4 µM [falling, single point]
O=C(Nc1cccc(NC(=O)c2ccc3c(c2)OCO3)c1)c1ccccc1 | inconclusive: 6.51 µM [falling, single point]
CN1CC(c2ccc(Cl)c(Cl)c2)[C@@]2(COc3ccccc3C2=O)[C@@]12C(=O)Nc1ccccc12 (stereo not given in full) | inconclusive: 14.6 µM [falling, partial curve]
Cc1cc(C(=O)O)c2c(=O)n(C)c(=O)n(C)c2n1 | inactive
O=C(O)c1cccc(NN=C2c3ccccc3-c3ccccc32)c1 | inconclusive: 32.6 µM [falling, single point]
Cc1ccc(Cn2c(CNS(=O)(=O)c3c(C)cc(C)cc3C)nc3cccnc32)cc1 | inactive
Cc1ccc(C(=O)CSC2=C(C#N)C(c3ccco3)C3=C(CC(C)(C)CC3=O)N2)cc1 (stereo not given) | inconclusive: 11.6 µM [falling, partial curve, poor fit]
Cc1c(NC(=O)[C@@H](NC(=O)c2ccc(Cl)c([N+](=O)[O-])c2)C(C)C)c(=O)n(-c2ccccc2)n1C | inactive
COc1ccc(C2=NN(c3nc4ccccc4s3)C(=O)C2)cc1 | inconclusive: 32.6 µM [falling, partial curve, poor fit]
COc1cc(C2Nc3ccccc3C(=O)N2Cc2ccccc2)ccc1OCc1ccc(NC(C)=O)cc1 (stereo not given) | inactive
COc1ccc(NC(=O)C2CCCN(CCCc3ccccc3)C2)cc1OCC(C)C (stereo not given) | inconclusive: 29.1 µM [falling, partial curve, poor fit]
C[C@@H]1CCCCCCCCC(=O)OCCN[C@H](C)CCCCCCCCC(=O)OCCN[C@H](C)CCCCCCCCC(=O)OCCN1 | inactive
Cc1cccc(N2CCN(C(=O)c3ccc4c(c3)N(Cc3ccccc3F)C(=O)c3ccccc3S4=O)CC2C)c1 (stereo not given) | inconclusive: 23.1 µM [falling, partial curve, poor fit]
Cc1ccc(CC(=O)N2CCN(c3ccc([N+](=O)[O-])cc3)CC2)cc1 | inconclusive: 16.4 µM [falling, partial curve, poor fit]
CCOC(=O)C1=C(O)c2ccccc2C(=O)/C1=C\c1ccc(C)cc1 | inconclusive: 20.6 µM [falling, single point]
COCc1cc(Sc2ccc(Br)cc2)nc(-c2ccccc2)n1 | inconclusive: 25.9 µM [activator, partial curve, poor fit]
O=C(Nc1ccccc1F)c1ccc([N+](=O)[O-])s1 | inconclusive: 18.4 µM [falling, single point]
Cc1cc(NC(=O)C23CCC(C)(C(=O)O2)C3(C)C)no1 (stereo not given) | inactive
COc1ccc(CNC(=O)C[C@H]2C[C@H](C(=O)N3CCOCC3)[C@@]3(CCC4CCCC4)c4[nH]c5ccc(Cl)cc5c4CCN3C2=O)cc1OC | inconclusive: 14.6 µM [falling, partial curve, poor fit]
Cc1cc(OC(=O)c2ccc(C(C)(C)C)cc2)c([N+](=O)[O-])c(=O)[nH]1 | inactive
Cc1ncoc1C(=O)N1CCCC(C(=O)c2ccc(-c3ccccc3)cc2)C1 (stereo not given) | inconclusive: 29.1 µM [falling, single point]

Compound | Potency
CCn1cc(C(=O)N[C@@H](CCSC)C(=O)NCCCN2CCOCC2)c(=O)c2cc3c(cc21)OCO3 | inconclusive: 18.4 µM [activator, partial curve, poor fit]
C=CCn1c(O)c(N=NC(=S)Nc2cccc(C)c2)c2ccccc21 | inconclusive: 32.6 µM [falling, partial curve, poor fit]
Cc1cc(C)cc(N=c2c([N+](=O)[O-])nn(-c3ccc4c(c3)OCCO4)n2O)c1 | inconclusive: 16.4 µM [falling, single point]
COc1ccccc1C(=O)NCCOc1ccc(C)c(C)c1 | inconclusive: 23.1 µM [activator, partial curve, poor fit]
CCN1C(=O)C(=O)N(CC(=O)c2cc(C)n(C3CC3)c2C)C1=O | inactive
Cc1cc(C)c2c(c1)-c1c(ssc1=S)C(C)(C)N2C(=O)CSc1nncn1C | inconclusive: 20.6 µM [falling, single point]
CCCCCCSc1ccc(-c2nc3ccc(C)cn3c2NCc2ccccc2)cc1OC | inconclusive: 8.2 µM [falling, partial curve]
CC(C(=O)NCC(=O)Nc1ccc(F)c(F)c1F)N1CCN(Cc2ccc(C#N)cc2)CC1 (stereo not given) | inactive
Cc1[nH]oc(=O)c1N=Nc1ccccc1 | inconclusive: 32.6 µM [falling, partial curve, poor fit]
CC(C)(CNC(=S)NCCc1ccccc1)CNC(=S)NCCc1ccccc1 | inconclusive: 18.4 µM [falling, partial curve, poor fit]
c1ccc(C[n+]2cccc3c4ccccc4ccc32)cc1 | inconclusive: 2.31 µM [falling, partial curve, poor fit]
COC(=O)CCN(Cc1ccco1)S(=O)(=O)c1ccc(F)cc1Br | inactive
CCN(CC(=O)NC(C)C)Cc1nc2c(Br)cc(Br)cc2c(=O)[nH]1 | inconclusive: 32.6 µM [falling, partial curve, poor fit]
COc1ccc(/C=C/c2nc3ccccc3n2C)cc1 | inactive
N#C/C(=C\c1ccc(-c2ccccc2C(=O)O)o1)c1nc2ccccc2[nH]1 | inconclusive: 16.4 µM [falling, partial curve, poor fit]
CCN(CC)C(=O)C1=C(C)Nc2nc3ccccc3n2C1c1ccc(Br)cc1 (stereo not given) | inactive
O=S(=O)(Nc1cccc(Cl)c1)c1ccc2[nH]c3c(c2c1)CCCCCC3 | inconclusive: 29.1 µM [falling, single point]
CCc1ccc(CNC(=O)c2ccc(CSc3nc4ccncc4n3Cc3ccc(OC)cc3)cc2)cc1 | inconclusive: 29.1 µM [falling, single point]
O=C(CSc1nnc(COc2ccc(Cl)cc2)o1)Nc1ccccc1 | inconclusive: 29.1 µM [falling, partial curve, poor fit]
O=C(CNC(=O)c1ccco1)OCc1ccc(C(=O)c2ccccc2)cc1 | inconclusive: 32.6 µM [falling, single point]
CC1CCCN(CCOCCOc2ccc(Cl)cc2Br)C1 (stereo not given) | inconclusive: 32.6 µM [falling, single point]
